PubChem BioAssay AID1224828 | NIAID, 2016

Screen: 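Regulators linking TLR4 signalling to p65 nuclear translocation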 (primary screen)
Cells: mouse RAW264.7 G9 macrophage reporter cells (GFP-p65, Tnf promoter-mCherry)
Reagent: siRNA pool against mouse genes, 100 nM
Duration: 2 days siRNA transfection, then 40 min LPS before fixation
Challenge: LPS (Salmonella minnesota R595) at 10 ng/ml
Read-out: 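Imaged p65 nuclear translocation ratio, normalised to the plate median, converted to robust z-scores and averaged across two replicates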
Direction: p65 translocation robust z-score: higher = more nuclear NF-kappaB p65 after LPS than the plate median; nuclear/cytoplasmic p65 ratio: higher = more nuclear NF-kappaB p65
Rule for the call: 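Active if robust z is above 3.3 (negative regulators) or below -1.56, the Tlr4 control median (positive regulators); activity score 50 or more; control wells not called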
Meaning of the calls: active = hit (p65 shift raised or lowered); inactive = no clear change
Here is a random part of about 17,000 reagents tested. In the full data, 762 (4.5%) were called active. 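Active calls include both raised and lowered p65 entry, mostly lowered; wells with fewer than 50 cells lack a z-score.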 Raw values are not corrected between plates. Entries without a mark were called inactive. A reagent listed more than once was tested more than once; the source does not tell the runs apart.

| gene | p65 translocation robust z-score | nuclear/cytoplasmic p65 ratio, rep 1 | nuclear/cytoplasmic p65 ratio, rep 2 | low cell count flag |
| --- | --- | --- | --- | --- |
| Srp54a (GeneID 24067) | – | 1.46 | 1.27 | fewer than 50 cells per well; well left out of scoring |
| Esrrb (GeneID 26380) | -0.53 | 1.5 | 1.38 | enough cells to score |
| Adgrf5 (GeneID 224792) | -0.93 | 1.39 | 1.43 | enough cells to score |
| Ttll6 (GeneID 237930) | – | 1.32 | 1.45 | fewer than 50 cells per well; well left out of scoring |
| Btbd6 (GeneID 399566) | – | 1.14 | 1.47 | fewer than 50 cells per well; well left out of scoring |
| Macroh2a2 (GeneID 404634) | -1.04 | 1.27 | 1.26 | enough cells to score |
| Kcnb1 (GeneID 16500) | 0.48 | 1.55 | 1.43 | enough cells to score |
| Pgp (GeneID 67078) | 0.55 | 1.46 | 1.5 | enough cells to score |
| Or14j1 (GeneID 258287) | 0.99 | 1.76 | 1.55 | enough cells to score |
| Gimap4 (GeneID 107526) | – | 1.47 | 1.45 | fewer than 50 cells per well; well left out of scoring |
| Mbnl1 (GeneID 56758) | -1.21 | 1.57 | 1.33 | enough cells to score |
| Nsmce2 (GeneID 68501) | 1.01 | 1.58 | 1.69 | enough cells to score |
| Herpud1 (GeneID 64209) | 0.89 | 1.58 | 1.46 | enough cells to score |
| Zbtb5 (GeneID 230119) | – | 1.32 | 1.24 | fewer than 50 cells per well; well left out of scoring |
| Ndufa1 (GeneID 54405) | -2 (active) | 1.42 | 1.33 | enough cells to score |
| Rbp1 (GeneID 19659) | 1.38 | 1.66 | 1.32 | enough cells to score |
| 4933404G15Rik (GeneID 74066) | – | 1.13 | 1.11 | fewer than 50 cells per well; well left out of scoring |
| Cdh7 (GeneID 241201) | -1.37 | 1.26 | 1.22 | enough cells to score |
| Rpgrip1 (GeneID 77945) | 0.82 | 1.66 | 1.61 | enough cells to score |
| Pccb (GeneID 66904) | -0.39 | 1.39 | 1.36 | enough cells to score |
| Clic3 (GeneID 69454) | -0.81 | 1.33 | 1.3 | enough cells to score |
| Tha1 (GeneID 71776) | -2.37 (active) | 1.2 | 1.13 | enough cells to score |
| Ntf5 (GeneID 78405) | 0.27 | 1.44 | 1.49 | enough cells to score |
| Luc7l2 (GeneID 192196) | 0.16 | 1.74 | 1.57 | enough cells to score |

Continued; the last 2 above are carried over.
| gene | p65 translocation robust z-score | nuclear/cytoplasmic p65 ratio, rep 1 | nuclear/cytoplasmic p65 ratio, rep 2 | low cell count flag |
| --- | --- | --- | --- | --- |
| Ntf5 (GeneID 78405) | 0.27 | 1.44 | 1.49 | enough cells to score |
| Luc7l2 (GeneID 192196) | 0.16 | 1.74 | 1.57 | enough cells to score |
| Drc8 (GeneID 68226) | – | 1.38 | 1.2 | fewer than 50 cells per well; well left out of scoring |
| Nuak2 (GeneID 74137) | 1.27 | 1.69 | 1.55 | enough cells to score |
| Nuak2 (GeneID 74137) | – | 1.36 | 1.16 | fewer than 50 cells per well; well left out of scoring |
| Vbp1 (GeneID 22327) | -0.48 | 1.48 | 1.4 | enough cells to score |
| Foxj2 (GeneID 60611) | -0.23 | 1.39 | 1.35 | enough cells to score |
| Cdc42ep1 (GeneID 104445) | -0.72 | 1.4 | 1.29 | enough cells to score |
| Ugt1a1 (GeneID 394436) | – | 1.22 | 1.08 | fewer than 50 cells per well; well left out of scoring |
| Lcn3 (GeneID 16820) | 1.86 | 1.82 | 1.68 | enough cells to score |
| Atp6v0e2 (GeneID 76252) | 0.93 | 1.69 | 1.56 | enough cells to score |
| Mpl (GeneID 17480) | -0.26 | 1.4 | 1.32 | enough cells to score |
| Kmt5b (GeneID 225888) | 1.2 | 1.76 | 1.99 | enough cells to score |
| Slc34a2 (GeneID 20531) | – | 1.33 | 1.26 | fewer than 50 cells per well; well left out of scoring |
| Or6c69b (GeneID 258543) | – | 1.76 | 1.21 | fewer than 50 cells per well; well left out of scoring |
| H2aj (GeneID 232440) | -0.52 | 1.44 | 1.29 | enough cells to score |
| Tmem132a (GeneID 98170) | 3.65 (active) | 2.05 | 1.94 | enough cells to score |
| Utp15 (GeneID 105372) | 0.34 | 1.54 | 1.67 | enough cells to score |
